The text below walks through data of paper PMC12370185.

The other results are listed elsewhere or left out. For some assays here: At the low end of the ranking the order means little.

Common to all, as to settings: 10 mM Tris-Cl pH 7.5, 50 mM NaCl, 1 mM DTT, 0.25 mg/ml BSA, 2 mM MgCl2, 0.025% Nonidet P-40, 5% glycerol; 28 nM nucleosome library; 10 min on ice then 30 min …; high values mean tight binding; double strand, one strand shown
The test system of experiment [1] is KLF4 + histone octamer. The experiment in a line: EMSA with sequencing.
Experiment [2] relates to SOX2 + histone octamer. The experiment in a line: EMSA with sequencing. For orientation: A gel shift assay detects complexes by their altered migration in electrophoresis.
The test system of experiment [3] is c-MYC + MAX + histone octamer. The experiment is described as follows: EMSA with sequencing.
Experiment [4] relates to OCT4 + histone octamer. The experiment in a line: Pioneer-seq (competitive nucleosome EMSA with sequencing).

Turning to “GATGGACCCTATACGCGGCAGCTGAACTCATATCAGAGACAGGCTCAGCCACAAGAGACATGGAAGAATAGCCAAGAGTCTAAAATATGATTTCAACACATGATAAAGCAAGGCTGTTTCAACAGCATGGGAGGTGTACTTCTTTGAACAGCGAGCCCTGGCTTTCCATATCACAGTACCTGGCAAAGCTTTGTTTTCTTTTCAGTAATCTGCCAGTCGGATAGTGTTCC”, the binding signal (log2 relative supershift) in experiment [1] is 0.299; in experiment [2], 1.73; in experiment [3], 0.143; in experiment [4], -0.322.
As to “GATGGACCCTATACGCGGCACACATGCACATTCATGCAAACACACACATACACATGCATGCACACACATGCAAACGTGCATGCATACACTTGTGCCAGCGTACCCACATGCACACACCTCCACACGCTCACTCATACATTCACACAATACACATGCACATGTATGCACATCCCCACCCATATGGACCCTGATTTCATGTGCTCACGCGCCTGCCAGTCGGATAGTGTTCC”, the binding signal (log2 relative supershift) in experiment [1] is 2.02; in experiment [2], 0.0124; in experiment [3], 1.51; in experiment [4], -0.0214.
In the case of “GATGGACCCTATACGCGGCACAGACACACAGATGCATGCACGCGCCCACACACACACACACACACACAAAACATGTGCTCCAGCTCTGCACATTCCCTCCTGCAAATTCTGATTGTCAAGGTGCTGAGGGTGTGGACAGAAGTTGTCTTTGGGTGGGTGAGATTGTAGGTGGGGATTTTTTTATTTCCTTTCTTTGCTTGTCTGTATTTTTGCCAGTCGGATAGTGTTCC”, the binding signal (log2 relative supershift) was 2.5 in experiment [1], 1.45 in experiment [2], 0.466 in experiment [3] and -0.674 in experiment [4].
Regarding “GATGGACCCTATACGCGGCATGTCTCTTTTTTCAAAAAGCAGCTGACCACCCATTTCCTGGCCCCACCCCTCCCACATTCTTCCAGCACATGCTCCTGTCTCCCTTGTAGTGCTGAGCACTGCTGTGACTGTACAGGGGTTGGGCCCTGCTTTTGATTAGTGCCTGTTTCTTATTGTGAGTTCCAAGAGGACATGTTCCTTTTACTCTGTTGCCAGTCGGATAGTGTTCC”, the binding signal (log2 relative supershift) was 1.72 in experiment [1], 0.316 in experiment [2], 0.522 in experiment [3] and -0.666 in experiment [4].
Taken in the same sequence, the figures for “GATGGACCCTATACGCGGCCCTCTCCTTTCATAATCATTTCCAAAGAGACTGAACAACCGGACATGGAACTTGACAGCATAATGCCAGCAGATTTGCACATCAGACATGAACAGCCACCCACATGGGTGGAGGGGGAGCATGTGTGTAGATGTGTATGTGTCCTGATTCACTGCTATAATACATGAGCCATAAATGGCATTATTTCAAGCTGCCAGTCGGATAGTGTTCC” were 0.668, 1.26, 0.0473 and -0.342.
In the case of “GATGGACCCTATACGCGGCACTAAAATACACAGCATCCCACCTTAAATCTTACTCAAGGGAGTTAATCCTATCGCCCATATGTGCATAAGACCAGAAGAATGGCTAATCTCCACCCCTTGCCTCCTTACAATACTAAACTCCCCACCCAGGGAGGAGCTTATTCACCATTTTGTTATCATGCCATGTGTGTACTACCATGATTTCTCACTTGCCAGTCGGATAGTGTTCC”, the binding signal (log2 relative supershift) was 1.42 in experiment [1], 0.355 in experiment [2], 0.17 in experiment [3] and -0.507 in experiment [4].
On the same counts, the results for “GATGGACCCTATACGCGGCGCCTGATCTATGTGCCCCACGCTTGGCAATGGGACTGGATTGGAGGCAGAGGATATGCATCTGAAAGTCAAGATACTTGCCAAGAGGAGAGGGAGAGGTGTTGGTGATGCAACCAGAATATCCATTACAGTAAACCAATTGTCAGAGCTACAAACTCTTCGTTTAATAGTCTTCCTATAGTCTCAGTCTTGTGCCAGTCGGATAGTGTTCC” are 0.346, 0.498, 0.361 and -0.297.
On to “GATGGACCCTATACGCGGCAAAATGCAGTCTGGCTTTGTTCATGAGGCTAAAGCATCTAAGCCAGTGTAGGGAAGCAATAGCAACAACAACAACAATCAATCAAACCAATTGCCTGGCATTCTATTGATATGGCAATCAGCTGATTGACTGAATGTTCTGCTCTTAACTTGTTGCCATAGTGCTACTACTACACCTGCTGAATGCTGCAATGCCAGTCGGATAGTGTTCC”, for which the binding signal (log2 relative supershift) was 0.886 in experiment [1], 0.978 in experiment [2], 0.648 in experiment [3] and -0.0187 in experiment [4].
On the same counts, the results for “GATGGACCCTATACGCGGCATGAGGAACAGCGTTTGTCTTTGTAACAGCTTGAAGAAAGACCCTTTCCAGGACCCAGTCATGCAGTTACAATCTTGACCTCTTTCTTATGCTGGGAACATGCATACAGCAGCACCTCCCATGTGTTTTCTTGTCCCATTGACTGTCCATTCACTTCCCATCTGTTTTGCAGTCTTAAAGGAACAGAAGGGTGCCAGTCGGATAGTGTTCC” are 0.852, 1.3, 0.706 and -0.237.
As to “GATGGACCCTATACGCGGCTGAGCCCGGACCTCACAAGAGACCATCTGCACTTCTGCTCTCTCTTGGGGCCCTGTCTCCGAAATGAGGACAAGCCTGGGCTGGCCTCCTGGAAAATGAGAGACCACGTGGAGCAGAACAGTCATTCCAGCTGAGTCAGCCCCCAACCAAGCCACCAGCTGATTTTAGAACTGCTCAACTGACAGTAGACTTGCCAGTCGGATAGTGTTCC”, the binding signal (log2 relative supershift) is 0.792 in experiment [1], 0.218 in experiment [2], 0.243 in experiment [3] and -0.331 in experiment [4].
Taken in the same sequence, the figures for “GATGGACCCTATACGCGGCGCGGTTATGTGTCTTCTTATTCAGGCTTGCTCACTGTACTTTGTTTGTGCAGGGAACAATGCTATCATGATCATTATAATGTAAACATCCCCTCCCAAAGTGTTAGGAAAAGTCTGCTGCAGCTCCCTGTGGTCTACTGTCAGTTACCACTTGTACCCATCTGTTTTATAGCCTCTTCAGTTTTGTTACTGTGCCAGTCGGATAGTGTTCC” were 0.558, 1.3, 0.314 and -0.124.
